Laboratory results reported in article doi:10.1101/2024.02.27.582188.
These are yes or no findings as the source states them, for the method shown. In cells and extracts the contact can be indirect. Here binding means that the protein was enriched with, or labelled near, the bait; the list need not be complete. For some assays here: No binding means not detected with the bait. Where a sequence is shown, tags or fusion partners need not be part of it.

Key:
[1] = biological target: T1, PilG-HA (Pseudomonas aeruginosa PAO1) (UniProt P46384); assay: affinity purification with mass spectrometry
T1 sequence: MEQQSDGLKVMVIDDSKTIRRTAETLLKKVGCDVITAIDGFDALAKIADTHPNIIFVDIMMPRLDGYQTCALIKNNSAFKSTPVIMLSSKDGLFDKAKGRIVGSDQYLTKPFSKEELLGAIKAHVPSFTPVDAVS

[2] = biological target: T2, PilH-HA (Pseudomonas aeruginosa PAO1) (UniProt P43501); assay: affinity purification with mass spectrometry
T2 sequence: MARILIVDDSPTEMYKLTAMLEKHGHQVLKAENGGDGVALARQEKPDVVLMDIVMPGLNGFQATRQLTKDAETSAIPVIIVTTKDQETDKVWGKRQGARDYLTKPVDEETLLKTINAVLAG

In the case of “ChpB methylesterase (from UniProt G3XD63) (enzyme)”, the binding [1] was “binds” and the binding [2] was “no binding”.
